The source of these data is PubChem BioAssay AID493014 (National Center for Advancing Translational Sciences (NCATS), 2011).

Structures are written as SMILES. Some of the results follow. These are further read-outs of the screen, such as a control signal, another cell line or another target. No call is given for them. Most of these compounds were active or inconclusive in the main read-out, so they are no random draw. Potencies come from curve fits of mixed quality, noted in brackets.

A short description of the assay: qHTS Assay to Find Inhibitors of Chronic Active B-Cell Receptor Signaling. As to conditions: ABC-DLBCL IkBa-CBG/CBR reporter, luminescence ratio (green luciferase fused to IkBa over red control in TMD8 lymphoma cells), 4 h. In a few lines: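 TMD8 ABC-DLBCL cells carrying doxycycline-inducible green luciferase fused to IkappaBalpha plus unfused red luciferase were exposed to compounds (up to 46 uM) for 4 hrs at 37C. Activity came from the overlap-corrected green/red luminescence ratio.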

Where [1] appears, read: measured here: CBR red luminescence, cell number.
The mark [2] stands for this setting: measured here: IkBa-CBG green luminescence.

As to `CC1CCC(NC(=O)C2COc3ccccc3O2)CC1` (stereo not drawn), the AC50 under setting [1] is 2.91 µM [rising, full curve, poor fit].
Take `O=C1CCCC2=C1C1(CCCC1)N=C(Nc1nc3ccccc3o1)N2`: under setting [1], the AC50 is 7.08 µM [falling, partial curve].
As for `CCOc1ccc(CCNC(=O)CSc2cc(=O)n(C)c3ccccc23)cc1OCC`, under setting [1], the AC50 is 3.26 µM [rising, partial curve, poor fit].
For `Cc1cc(C(=O)COC(=O)c2cccnc2Cl)c(C)n1CC1CCCO1` (stereo not drawn), the AC50 under setting [1] was 31.6 µM [rising, single point].
The same measure, in the same setting: in the case of `O=C(Nc1ccccc1)C1CC(=O)n2ncnc2N1` (stereo not drawn) it was 2.31 µM [rising, full curve, poor fit]; in that of `CCOc1ccc(-c2cc(CCCC(=O)Nc3cccc(OC)c3)no2)cc1`, 0.366 µM [falling, full curve, poor fit].
The same measure, in the same setting: in the case of `S=C1NC2(CCS1)Oc1ccccc1C1CC(c3ccccc3)=NN12` (stereo not drawn) it was 1.12 µM [rising, full curve, poor fit].
As for `CNC(=S)N(CCc1c(C)[nH]c2ccc(Cl)cc12)Cc1cccs1`, the AC50 under setting [1] was 11.2 µM [falling, partial curve, poor fit].
On the same count and under the same terms, in the case of `Oc1[nH]c2ccccc2c1/C=N/N1CCCCC1` it was 3.98 µM [falling, partial curve, poor fit].
The same measure, in the same setting: in the case of `COc1cccc(NC(=O)c2cnsn2)c1` it was 7.31 µM [falling, partial curve, poor fit]; in that of `COC(=O)c1ccccc1NC1=C/C(=N\S(=O)(=O)c2ccc(C(=O)O)cc2)c2ccccc2C1=O`, 11.2 µM [falling, partial curve]; in that of `N#Cc1c(-c2ccc(F)cc2)nc(-c2ccccc2)[nH]c1=O`, 35.5 µM [falling, single point].
For the compound `COCCNC(=O)C(c1ccc(C)o1)N(C(=O)c1snc(C(N)=O)c1N)c1ccc(C)cc1` (stereo not drawn), under setting [1], the AC50 was 18.4 µM [rising, single point].
Consider `Cn1nnnc1SCC(=O)c1ccc2c(c1)OCCO2`, for which, under setting [1], the AC50 was 0.355 µM [rising, full curve, poor fit].
The same measure, in the same setting: in the case of `CCC1=C/C(=C/N(C)c2ccccc2)C(=O)S1` it was 14.6 µM [falling, single point]; in that of `COc1ccc(S(=O)(=O)N(C)Cc2ccc3c(c2)OCCO3)cc1`, 0.411 µM [rising, partial curve, poor fit]; in that of `COc1cc2c(cc1OC)CN(CC(=O)Nc1ccc3c(c1)OC(F)(F)O3)CC2`, 6.51 µM [rising, partial curve, poor fit].
As to `Brc1cccc2sc(N3CCN(c4ccccc4)CC3)nc12`, the AC50 under setting [1] is 8.91 µM [rising, partial curve].
In the case of `COCc1c(C(=O)Nc2nc(C)cs2)oc2ccccc12`, the AC50 under setting [1] was 7.94 µM [falling, partial curve, poor fit].
As for `c1csc(-c2nc3c4ccccc4c4ccccc4c3[nH]2)c1`, the AC50 under setting [1] was 0.731 µM [falling, full curve, poor fit].
As to `C=CCc1cc(/C=C2/NC(=O)NC2=O)cc(OCC)c1O`, under setting [1], the AC50 is 4.47 µM [rising, full curve].
Still for that read-out and setting: the same measure for `O=C(Cc1c(F)cccc1Cl)NC1=NCCS1`: 31.6 µM [rising, single point].
On the same count and under the same terms, the same measure for `COc1ccccc1N=C1SCC(=O)N1Cc1ccco1`: 35.5 µM [falling, single point]; for `c1ccc(Oc2cc(-n3cccn3)ncn2)cc1`: 2.91 µM [rising, partial curve, poor fit].
Turning to `C=CCN(c1ccccc1)S(=O)(=O)c1cccc(C(=O)OCC(=O)NCCOC)c1`, the AC50 under setting [1] was 3.55 µM [rising, partial curve, poor fit].
In the case of `NCC(O)COc1ccc2c(c1)OCO2` (stereo not drawn), under setting [1], the AC50 is 29.1 µM [rising, single point].
Take `COc1ccc(Cl)cc1NC(=O)C/C(C)=N/NC(=O)c1ccc(O)cc1`: under setting [1], the AC50 was 0.2 µM [falling, full curve, poor fit].
For the compound `CCc1ccc(C(=O)Nc2ccc3c(c2)n(C)c(=O)n3C)cc1`, the AC50 is, setting by setting: under setting [1], 35.5 µM [rising, single point]; under setting [2], 15.8 µM [falling, single point].
As for `O=C(N/N=C/c1cc(Br)c(O)c(Br)c1)c1cc2c(ccc3ccccc32)o1`, the AC50 under setting [1] was 17.8 µM [falling, single point].
Same read-out and setting: the same measure for `Cc1ccc(C)c(NC(=S)NC(C)C(c2ccccc2)N2CCN(C)CC2)c1` (stereo not drawn): 17.8 µM [falling, single point].
Turning to `COc1ccc(C2(O)CCN(C(=O)NC3CCCCC3)CC2)cc1`, the AC50 under setting [1] is 0.891 µM [rising, full curve, poor fit].
As for `C[C@@]12C(=O)Nc3ccc(F)cc3C(=O)N1[C@H]1c3cc(Cl)ccc3OC[C@@H]1[C@@H]2c1ccccc1`, the AC50 reads like this: under setting [1], 2.59 µM [falling, full curve]; under setting [2], 3.26 µM [rising, full curve].
On to `COc1cc(C(=O)NCCOc2cc(C)ccc2C(C)C)cc(OC)c1OC`, for which the AC50 under setting [1] is 11.2 µM [falling, single point].
With `Cc1ccccc1-n1nc(C)c2cc(C(=O)NCc3cccnc3)sc21`, under setting [1], the AC50 was 20.6 µM [falling, partial curve, poor fit].
For the compound `COc1cccc(Nc2ncnc3c2cnn3-c2cccc(C)c2)c1`, the half-maximal activity concentration (AC50) under setting [1] was 0.631 µM [falling, partial curve, poor fit].
Take `COc1cccc(C(=O)Nc2nnc(-c3cccs3)s2)c1`: the AC50 under setting [1] was 1.64 µM [falling, full curve].
On to `COc1cc(CN2CCN(Cc3ccco3)CC2)cc(OC)c1`, for which the AC50 under setting [1] is 12.6 µM [falling, single point].
`COC(=O)c1ccc(N=NNc2cccc(Br)c2)cc1`: under setting [1], the AC50 is 0.326 µM [falling, full curve].
`CN(CCc1ccccn1)C(=S)Nc1ccc(Cl)c(Cl)c1`: the AC50 under setting [1] was 6.31 µM [rising, single point].
Turning to `CC1CCN(S(=O)(=O)c2ccc(NC(=O)c3ccncc3)cc2)CC1`, the AC50 under setting [1] is 35.5 µM [falling, single point].
Consider `Cc1ccccc1CSc1nn2c(=O)c(C)nnc2s1`, for which, under setting [1], the AC50 is 0.447 µM [falling, full curve, poor fit].
Turning to `Clc1ccc(CSc2nnc(-c3sccc3-n3cccc3)o2)cc1`, the AC50 under setting [1] is 31.6 µM [rising, single point].
Consider `CCN(CC(=O)Nc1ccc(N2CCOCC2)cc1)CC(=O)NC(C)(C)C`, for which, under setting [1], the AC50 is 11.2 µM [rising, partial curve].
For `CCn1cc2nc(SCC(=O)Nc3ccc(OC)c(OC)c3)n(Cc3ccc(OC)cc3)c(=O)c2n1`, the AC50 under setting [1] is 35.5 µM [falling, single point].
For the compound `Oc1ccc(Nc2nc(-c3ccccc3F)nc3ccccc23)cc1`, under setting [1], the AC50 was 12.6 µM [falling, partial curve, poor fit].
Take `N/C(=N\NC(=O)c1ccccc1)c1cc2ccccc2oc1=O`: under setting [1], the AC50 is 7.94 µM [falling, partial curve, poor fit].
As for `O=S(=O)(NC1=NCCCCC1)c1ccc2sc(NS(=O)(=O)c3ccc4ccccc4c3)nc2c1`, the AC50 under setting [1] is 22.4 µM [rising, single point].
Still for that read-out and setting: in the case of `S=C(NC1CCCCC1)c1ccc2c(c1)OCO2` it was 6.31 µM [rising, single point].
For the compound `COC(=O)c1c(NC(=O)C2CC=CCC2C(=O)O)sc(C)c1C` (stereo not drawn), the AC50 under setting [1] was 20.6 µM [falling, partial curve, poor fit].
Consider `COc1cccc(C=O)c1OCCCOc1cccc2cccnc12`, for which the AC50 by setting is: under setting [1], 4.47 µM [rising, full curve]; under setting [2], 11.2 µM [falling, partial curve, poor fit].
Regarding `COc1ccc(C2NC(=O)C(C#N)=C(S)N2c2ccc(C)cc2)cc1OC` (stereo not drawn), the AC50 was 15.8 µM [rising, single point] under setting [1] and 20 µM [falling, single point] under setting [2].
Turning to `CCOC(=O)C1CCN(C(=O)COC(=O)CNC(=O)c2ccc(C(C)(C)C)cc2)CC1`, the AC50 under setting [1] is 23.1 µM [falling, partial curve, poor fit].
As to `O=C(Nc1ccc(C(F)(F)F)cc1)C1CC(=O)N(c2ccc3c(c2)OCCO3)C1` (stereo not drawn), the AC50 under setting [1] is 20.6 µM [falling, single point].
With `CSc1ccccc1OCc1cc(C(=O)N2C[C@H]3CC[C@H]2C3)no1`, under setting [1], the AC50 was 12.6 µM [rising, partial curve, poor fit].
For the compound `NCCc1nc(-c2ccccc2)cs1`, the AC50 under setting [1] was 2.51 µM [rising, full curve, poor fit].
Take `Cc1nc2ccc3nc(NC(=O)c4ccc5c(c4)OCCO5)sc3c2s1`: the AC50 under setting [1] is 0.794 µM [falling, full curve].
For the compound `Cc1cc(-c2ccc(N=Nc3c(S(=O)(=O)O)cc4cc(S(=O)(=O)O)cc(N)c4c3O)c(C)c2)ccc1N=Nc1c(S(=O)(=O)O)cc2cc(S(=O)(=O)O)cc(N)c2c1O`, the AC50 under setting [1] is 3.66 µM [falling, full curve].
As to `Cc1cc(C)n(-c2nc(NCCO)c3c4c(sc3n2)CCCC4)n1`, under setting [1], the AC50 was 0.0517 µM [rising, full curve, poor fit].
`Cc1cc(NC(=S)N(Cc2ccc(Br)cc2)Cc2ccc(C(=O)O)cc2)ccc1Cl`: the AC50 by setting is: under setting [1], 35.5 µM [falling, single point]; under setting [2], 17.8 µM [rising, partial curve, poor fit].
For the compound `Cc1nc2cc(NC(=O)N3CCC(c4ccccc4)C3)ccc2n1C` (stereo not drawn), under setting [1], the AC50 is 0.0164 µM [rising, full curve, poor fit].
On the same count and under the same terms, in the case of `COC(=O)c1ccc(Cn2nc(-c3ccc(C)c(C)c3)ccc2=O)cc1` it was 17.8 µM [rising, single point]; in that of `CCOC(=O)C(C)(C)N(Cc1cccc(C)c1)S(=O)(=O)c1ccc(Cl)c([N+](=O)[O-])c1`, 29.1 µM [falling, single point]; in that of `COc1cc(/C=C/C(=O)N2CCN(Cc3ccccc3)CC2)cc(OC)c1OC`, 0.708 µM [rising, full curve, poor fit].
